Reference: publication PMC3682539
Results are given in words; binding and its absence hold for the method and conditions named. In cells and extracts the contact can be indirect. Some results given as binding are weak or reduced against the parent protein; the word gives no strength. Sequences can lack the tags named with a protein. Blank lines part the entries; values can stand above or below the molecule they belong to.

Chains of the proteins cited; added tags and fusions are not shown.
UniProt P39705: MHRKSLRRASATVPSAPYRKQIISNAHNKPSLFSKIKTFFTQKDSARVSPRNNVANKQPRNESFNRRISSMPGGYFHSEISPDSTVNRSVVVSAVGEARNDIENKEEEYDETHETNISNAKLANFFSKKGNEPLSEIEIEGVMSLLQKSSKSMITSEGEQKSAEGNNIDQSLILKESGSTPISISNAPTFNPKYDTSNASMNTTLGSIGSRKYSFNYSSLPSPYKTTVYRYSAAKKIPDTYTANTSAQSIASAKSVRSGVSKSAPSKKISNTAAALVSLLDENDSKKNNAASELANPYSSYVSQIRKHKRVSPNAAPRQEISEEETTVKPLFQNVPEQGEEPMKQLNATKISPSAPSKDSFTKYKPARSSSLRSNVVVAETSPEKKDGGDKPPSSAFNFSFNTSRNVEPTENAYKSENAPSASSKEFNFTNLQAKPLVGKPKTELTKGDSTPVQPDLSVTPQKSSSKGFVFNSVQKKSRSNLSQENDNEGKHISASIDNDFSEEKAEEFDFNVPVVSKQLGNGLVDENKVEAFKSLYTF
UniProt P32499: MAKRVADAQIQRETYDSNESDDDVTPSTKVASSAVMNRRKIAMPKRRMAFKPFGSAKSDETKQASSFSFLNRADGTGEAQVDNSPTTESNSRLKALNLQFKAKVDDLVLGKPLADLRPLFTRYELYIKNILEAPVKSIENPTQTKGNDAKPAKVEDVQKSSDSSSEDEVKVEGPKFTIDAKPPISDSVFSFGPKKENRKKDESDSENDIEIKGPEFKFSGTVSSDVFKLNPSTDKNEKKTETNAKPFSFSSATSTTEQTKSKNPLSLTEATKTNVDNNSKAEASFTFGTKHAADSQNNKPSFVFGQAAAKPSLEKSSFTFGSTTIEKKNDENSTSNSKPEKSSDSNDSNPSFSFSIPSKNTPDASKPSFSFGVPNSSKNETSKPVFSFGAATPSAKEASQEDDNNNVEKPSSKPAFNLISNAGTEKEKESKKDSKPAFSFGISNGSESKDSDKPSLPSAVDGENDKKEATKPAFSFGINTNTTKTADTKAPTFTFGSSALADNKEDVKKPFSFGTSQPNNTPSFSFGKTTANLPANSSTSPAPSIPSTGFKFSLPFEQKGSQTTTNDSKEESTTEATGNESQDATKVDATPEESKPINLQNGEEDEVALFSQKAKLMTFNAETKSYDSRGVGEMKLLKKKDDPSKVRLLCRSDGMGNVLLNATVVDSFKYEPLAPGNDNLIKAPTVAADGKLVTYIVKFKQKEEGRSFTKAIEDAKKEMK
UniProt P40368: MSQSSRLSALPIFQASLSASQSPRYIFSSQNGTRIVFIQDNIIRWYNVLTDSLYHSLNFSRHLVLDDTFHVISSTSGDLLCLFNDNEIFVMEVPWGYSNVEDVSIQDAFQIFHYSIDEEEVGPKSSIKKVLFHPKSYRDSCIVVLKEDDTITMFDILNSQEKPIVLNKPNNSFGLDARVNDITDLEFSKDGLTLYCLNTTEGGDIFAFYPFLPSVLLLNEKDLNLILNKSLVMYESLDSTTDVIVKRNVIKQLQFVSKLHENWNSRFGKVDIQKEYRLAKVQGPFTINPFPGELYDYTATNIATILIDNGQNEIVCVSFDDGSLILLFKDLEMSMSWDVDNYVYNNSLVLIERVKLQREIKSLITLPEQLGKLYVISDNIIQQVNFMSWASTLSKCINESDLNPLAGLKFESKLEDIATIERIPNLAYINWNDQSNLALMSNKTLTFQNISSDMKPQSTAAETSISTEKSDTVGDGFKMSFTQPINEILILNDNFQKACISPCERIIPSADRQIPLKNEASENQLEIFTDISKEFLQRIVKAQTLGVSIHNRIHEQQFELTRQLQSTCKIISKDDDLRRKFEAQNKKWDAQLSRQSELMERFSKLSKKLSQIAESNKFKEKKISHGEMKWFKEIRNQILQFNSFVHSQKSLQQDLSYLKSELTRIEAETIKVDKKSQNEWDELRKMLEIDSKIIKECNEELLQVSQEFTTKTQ
UniProt P52891: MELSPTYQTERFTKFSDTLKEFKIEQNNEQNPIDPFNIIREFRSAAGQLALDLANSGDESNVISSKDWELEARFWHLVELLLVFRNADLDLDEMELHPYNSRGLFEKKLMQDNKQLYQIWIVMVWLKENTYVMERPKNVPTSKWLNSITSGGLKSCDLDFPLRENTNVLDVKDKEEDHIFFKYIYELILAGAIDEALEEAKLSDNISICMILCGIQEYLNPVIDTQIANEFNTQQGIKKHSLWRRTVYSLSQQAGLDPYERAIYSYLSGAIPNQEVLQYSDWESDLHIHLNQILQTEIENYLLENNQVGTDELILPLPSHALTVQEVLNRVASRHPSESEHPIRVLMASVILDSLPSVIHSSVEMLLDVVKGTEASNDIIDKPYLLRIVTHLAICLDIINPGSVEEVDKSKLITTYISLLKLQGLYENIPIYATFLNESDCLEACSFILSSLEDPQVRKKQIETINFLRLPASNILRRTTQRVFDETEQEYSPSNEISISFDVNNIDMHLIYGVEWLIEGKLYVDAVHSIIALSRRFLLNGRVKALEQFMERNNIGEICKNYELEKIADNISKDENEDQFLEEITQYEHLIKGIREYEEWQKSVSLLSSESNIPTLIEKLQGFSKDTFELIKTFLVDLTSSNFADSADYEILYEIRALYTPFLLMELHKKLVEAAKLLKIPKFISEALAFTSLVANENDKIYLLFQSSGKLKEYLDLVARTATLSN
UniProt P52593: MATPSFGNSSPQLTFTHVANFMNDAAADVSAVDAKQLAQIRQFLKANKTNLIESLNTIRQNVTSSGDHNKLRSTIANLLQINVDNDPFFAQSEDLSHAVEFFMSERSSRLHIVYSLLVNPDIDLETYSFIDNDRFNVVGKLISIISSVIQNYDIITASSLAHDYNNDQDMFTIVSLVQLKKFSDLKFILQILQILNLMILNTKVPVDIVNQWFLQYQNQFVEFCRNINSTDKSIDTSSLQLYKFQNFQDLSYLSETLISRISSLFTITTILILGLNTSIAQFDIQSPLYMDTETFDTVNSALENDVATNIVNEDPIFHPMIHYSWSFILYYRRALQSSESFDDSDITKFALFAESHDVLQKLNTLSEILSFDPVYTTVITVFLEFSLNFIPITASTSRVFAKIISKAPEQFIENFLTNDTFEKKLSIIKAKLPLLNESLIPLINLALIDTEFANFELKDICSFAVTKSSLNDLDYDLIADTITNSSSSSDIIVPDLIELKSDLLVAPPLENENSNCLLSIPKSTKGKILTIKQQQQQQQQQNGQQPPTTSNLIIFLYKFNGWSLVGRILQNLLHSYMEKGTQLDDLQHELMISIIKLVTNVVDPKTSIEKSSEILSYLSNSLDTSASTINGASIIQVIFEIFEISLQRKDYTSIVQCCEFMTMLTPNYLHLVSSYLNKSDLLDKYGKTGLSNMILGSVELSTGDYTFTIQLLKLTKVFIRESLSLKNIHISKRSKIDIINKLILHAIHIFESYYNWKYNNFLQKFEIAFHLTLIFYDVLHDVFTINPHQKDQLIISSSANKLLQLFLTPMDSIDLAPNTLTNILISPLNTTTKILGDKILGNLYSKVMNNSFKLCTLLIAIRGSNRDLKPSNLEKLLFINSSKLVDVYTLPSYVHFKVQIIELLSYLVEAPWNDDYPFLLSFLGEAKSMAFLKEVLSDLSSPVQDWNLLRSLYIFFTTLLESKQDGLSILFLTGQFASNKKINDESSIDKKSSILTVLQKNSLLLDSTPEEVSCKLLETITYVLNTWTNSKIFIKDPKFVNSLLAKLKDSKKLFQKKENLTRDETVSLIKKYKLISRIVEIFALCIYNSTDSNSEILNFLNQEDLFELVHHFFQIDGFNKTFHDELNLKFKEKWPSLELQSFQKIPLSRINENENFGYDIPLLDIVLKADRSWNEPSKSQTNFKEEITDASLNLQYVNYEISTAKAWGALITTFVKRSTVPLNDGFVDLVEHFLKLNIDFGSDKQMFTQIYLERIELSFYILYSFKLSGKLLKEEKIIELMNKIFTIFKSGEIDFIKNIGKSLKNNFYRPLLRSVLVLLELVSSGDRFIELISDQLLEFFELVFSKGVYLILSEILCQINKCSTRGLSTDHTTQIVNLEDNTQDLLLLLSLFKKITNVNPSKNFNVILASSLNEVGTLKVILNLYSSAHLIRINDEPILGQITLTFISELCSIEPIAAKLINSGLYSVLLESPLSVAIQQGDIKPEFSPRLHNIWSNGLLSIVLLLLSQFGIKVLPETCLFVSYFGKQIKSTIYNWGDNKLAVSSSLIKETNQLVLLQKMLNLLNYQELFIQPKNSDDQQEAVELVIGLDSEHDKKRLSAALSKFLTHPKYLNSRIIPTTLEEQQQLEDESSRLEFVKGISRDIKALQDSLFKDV

Legend:
[1] = target: T1, GST-Hog1 (S. cerevisiae) (UniProt P32485); experiment: pull-down; GST pulldown of GST-Hog1 from yeast expressing Nup2-HA or Nup60-HA; HA-tagged proteins detected (Fig. 5B, left panels)
T1 sequence: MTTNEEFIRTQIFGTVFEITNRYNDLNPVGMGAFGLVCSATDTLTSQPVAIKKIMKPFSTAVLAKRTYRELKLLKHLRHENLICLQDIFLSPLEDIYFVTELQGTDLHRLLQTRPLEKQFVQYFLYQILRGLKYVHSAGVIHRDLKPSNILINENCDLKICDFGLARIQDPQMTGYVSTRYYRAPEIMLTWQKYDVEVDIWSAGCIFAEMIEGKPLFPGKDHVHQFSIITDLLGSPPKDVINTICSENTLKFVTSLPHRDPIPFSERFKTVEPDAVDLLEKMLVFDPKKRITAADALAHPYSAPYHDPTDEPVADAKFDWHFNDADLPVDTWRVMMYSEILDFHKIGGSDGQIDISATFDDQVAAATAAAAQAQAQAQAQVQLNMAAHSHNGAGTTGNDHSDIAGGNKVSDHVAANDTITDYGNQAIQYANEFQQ

[2] = target: T1, GST-Hog1 (S. cerevisiae); experiment: pull-down; GST or GST-Hog1 pulled down on glutathione-Sepharose from extracts of yeast treated with 0.4 M NaCl for 10 min; 2 mg cleared extract, overnight at 4 °C, buffer A (50 mM Tris-HCl pH 7.5, 150 mM NaCl, 0.1% Triton X-100); TAP-tagged proteins detected with PAP antibody
[3] = target: Nup60-HA (S. cerevisiae) (UniProt P39705); experiment: co-IP; HA pulldown (immunoprecipitation) of Nup2-HA or Nup60-HA from yeast expressing GST-Hog1; Hog1 detected (Fig. 5B, right panels)
[4] = target: Nup2-HA (S. cerevisiae) (UniProt P32499); experiment: as above

binding [1]: binds
Molecule: Nup2-HA (from UniProt P32499 1-720)

binding [1]: binds
Molecule: Nup60-HA (from UniProt P39705 1-539)

binding [2]: binds
Molecule: TAP-tagged Nup2 (from UniProt P32499 1-720)

binding [2]: binds
Molecule: TAP-tagged Nup60 (from UniProt P39705 1-539)

binding [2]: binds
Molecule: TAP-tagged Nup82 (from UniProt P40368 1-713)

binding [2]: binds
Molecule: TAP-tagged Nup84 (from UniProt P52891 1-726)

binding [2]: binds
Molecule: TAP-tagged Nup188 (from UniProt P52593 1-1655)

binding [3]: binds | binding [4]: binds
B1: GST-Hog1 (enzyme, UniProt P32485 1-435)
chain: T1 sequence
